Measured values from patent publication US20240285571A1, “METHODS OF TREATING BONE INFECTIONS” (MICROBION CORPORATION, priority 2020, published 2024).
At least one compound was matched to its structure with a doubt left.

How the values were obtained:
[1] = system: non-speciated Corynebacterium; assay: MIC of baseline clinical isolates (Example 8); format: cell-based; settings: Corynebacterium non-speciated baseline isolates (N′ = 2), central laboratory, mITT
Description: Microbiology was assessed on Day 1 and at the time of any subsequent surgical procedure at the index site. Samples were collected from the infected bone site or involved tissue adjacent to any implant(s), swabs of the deep infection site, and the superficial tissue/wound closure/sinus tract site. Isolation and identification of aerobic and anerobic bacteria was conducted at a central microbiology laboratory (IHMA, Schaumburg, IL) and susceptibility of the isolates to MBN-101 (BisEDT) and comparator agents was performed per Clinical and Laboratory Standards Institute (CLSI). Parallel sets of samples were analyzed by the local clinical site laboratory to guide patient antibiotic treatment.

E. coli = E. coli MMX 102 (ATCC 25922); cited from earlier work

Compound | n (% resistant) [1] | CLSI QC range of MIC (E. coli)
CC1(C)S[C@@H]2[C@H](NC(=O)Cc3ccccc3)C(=O)N2[C@H]1C(=O)O [PEN] | (50.0) n (%) | 
C[C@H]1COc2c(N3CCN(C)CC3)c(F)cc3c(=O)c(C(=O)O)cn1c23 [Levofloxacin] |  | (0.008-0.06)^1 μg/mL
